Results from PMC7592376, “Design and synthesis of multi-target directed 1,2,3-triazole-dimethylaminoacryloyl-chromenone derivatives with potential use in Alzheimer's disease” (BMC Chemistry, 2020).

The chains behind the UniProt entries cited, without tags or fusion partners. Residues count along the entry.
UniProt P05067, 672-713 limits assumed: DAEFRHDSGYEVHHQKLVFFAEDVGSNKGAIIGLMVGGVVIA

Biological target: Aβ1-42 (Homo sapiens, UniProt P05067)
Assay: biochemical
Conditions: read-out: % Inhibition self-induced Aβ1–42 aggregation
Experimental: Inhibition of Aβ1-42 self-aggregation was measured by ThT fluorescence assay. The details of the method were reported in our previous study. To study Aβ42 aggregation inhibition, a reported method, based on the fluorescence emission of ThT was followed. Briefly, the mixtures of Aβ1-40 peptide (Bachem company, Switzerland) and AChE (Sigma, Electrophorus electricus), in the presence or absence of the test inhibitor were incubated for 24 h at room temperature.

SMILES: COc1cc2c(cc1OC)C(=O)C(CC1CCN(Cc3ccccc3)CC1)C2 (stereo not shown) [donepezil]
- inhibition at 10 µM: 18.1 ± 1.4%
